# PubChem BioAssay AID1508597, Cure First, 2020
# Aim: 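Survival screen with siRNA in ovarian cancer cells derived from patients, with or without rucaparib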 (primary screen)
# Cell system: human ovarian carcinoma lines grown from tumours: OCI-P5x (papillary serous) and OCI-C5x (clear cell)
# Reagent: siRNA pool against human genes, 1.25 pmol siRNA per well
# Timing: 72 h or 96 h, depending on the cell culture
# Conditions: rucaparib 20 µM (about IC30) or vehicle, present until read-out
# Rucaparib or vehicle: Vehicle
# Cell line: OCI-C5x (clear cell)
# Detection: 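Luminescent ATP-based viability assay read 72 or 96 h after transfection, depending on culture, given as normalised percent viability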
# Direction: viability, normalised: higher = more viable cells remaining
# Rule for the call: 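Active when normalised viability falls below 80 percent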
# Calls: active = viability under 80%; inactive = viability 80% or more
# This is an unselected part of the about 2,100 reagents, in one setting of the screen. 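Calls flag viability under 80% in either arm, not effects specific to rucaparib; the reference for percent is not stated.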 Some reagents were tested in more than one well and are listed for each. No sequences are given here. Not stated in the record: the 100% reference.
gene symbol,technical replicate,"viability, normalised (%)",outcome
NEK3 (NIMA related kinase 3),1,70.5,active
NEK3 (NIMA related kinase 3),2,63.5,active
NEK3 (NIMA related kinase 3),3,50.2,active
SIN3B (SIN3 transcription regulator family member B),1,28.4,active
SIN3B (SIN3 transcription regulator family member B),2,27.5,active
SIN3B (SIN3 transcription regulator family member B),3,31.4,active
MTF2 (metal response element binding transcription factor 2),1,49.2,active
MTF2 (metal response element binding transcription factor 2),2,62.4,active
MTF2 (metal response element binding transcription factor 2),3,59.2,active
TNK2 (tyrosine kinase non receptor 2),1,43.4,active
TNK2 (tyrosine kinase non receptor 2),2,83,inactive
TNK2 (tyrosine kinase non receptor 2),3,58.8,active
NEK9 (NIMA related kinase 9),1,46.8,active
NEK9 (NIMA related kinase 9),2,50.2,active
NEK9 (NIMA related kinase 9),3,64.6,active
TP53BP1 (tumor protein p53 binding protein 1),1,12.2,active
TP53BP1 (tumor protein p53 binding protein 1),1,79.6,active
TP53BP1 (tumor protein p53 binding protein 1),2,69.9,active
TP53BP1 (tumor protein p53 binding protein 1),2,39.2,active
TP53BP1 (tumor protein p53 binding protein 1),3,84.1,inactive
TP53BP1 (tumor protein p53 binding protein 1),3,63.7,active
ITIH4 (inter-alpha-trypsin inhibitor heavy chain 4),1,48.7,active
ITIH4 (inter-alpha-trypsin inhibitor heavy chain 4),2,38.6,active
ITIH4 (inter-alpha-trypsin inhibitor heavy chain 4),3,51.8,active
GADD45G (growth arrest and DNA damage inducible gamma),1,70.8,active
GADD45G (growth arrest and DNA damage inducible gamma),2,51.3,active
GADD45G (growth arrest and DNA damage inducible gamma),3,47.9,active
RCBTB1 (RCC1 and BTB domain containing protein 1),1,59.2,active
RCBTB1 (RCC1 and BTB domain containing protein 1),2,44.1,active
RCBTB1 (RCC1 and BTB domain containing protein 1),3,56.2,active
TYK2 (tyrosine kinase 2),1,71.4,active
TYK2 (tyrosine kinase 2),2,62.1,active
TYK2 (tyrosine kinase 2),3,87.3,inactive
TWF1 (twinfilin actin binding protein 1),1,50.3,active
TWF1 (twinfilin actin binding protein 1),2,43.3,active
TWF1 (twinfilin actin binding protein 1),3,53.7,active
PDK2 (pyruvate dehydrogenase kinase 2),1,58.6,active
PDK2 (pyruvate dehydrogenase kinase 2),2,44.8,active
PDK2 (pyruvate dehydrogenase kinase 2),3,53.1,active

Entries listed so far whose target name starts with P or p:
gene symbol,technical replicate,"viability, normalised (%)",outcome
PDK2 (pyruvate dehydrogenase kinase 2),1,58.6,active
PDK2 (pyruvate dehydrogenase kinase 2),2,44.8,active
PDK2 (pyruvate dehydrogenase kinase 2),3,53.1,active
